Reference: the supplement of paper PMC12823440, “Inhibitors supercharge kinase turnover through native proteolytic circuits” (Nature, 2025)
Structures can show the parent of a compound that is named as a salt. The list shows a part of the results. The calls rarely recur for the same compound in another form.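 Kinases, fused to nanoluciferase, were expressed in K562 cells; luminescence was measured every 4 h from 2 to 18 h as percent of control (DMSO = 100%, positive control = 0%). A time point is decreased if signal falls significantly (2 sigma). Hits were called by the authors by a rule that is not shown; the count of time points alone does not decide it.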

Protein sequences, listed by entry. Tags and fused reporters are not part of them. Lines headed by an entry give the natural chain unless they say otherwise; changes in a name come on top.
UniProt Q9UQM7, whole entry: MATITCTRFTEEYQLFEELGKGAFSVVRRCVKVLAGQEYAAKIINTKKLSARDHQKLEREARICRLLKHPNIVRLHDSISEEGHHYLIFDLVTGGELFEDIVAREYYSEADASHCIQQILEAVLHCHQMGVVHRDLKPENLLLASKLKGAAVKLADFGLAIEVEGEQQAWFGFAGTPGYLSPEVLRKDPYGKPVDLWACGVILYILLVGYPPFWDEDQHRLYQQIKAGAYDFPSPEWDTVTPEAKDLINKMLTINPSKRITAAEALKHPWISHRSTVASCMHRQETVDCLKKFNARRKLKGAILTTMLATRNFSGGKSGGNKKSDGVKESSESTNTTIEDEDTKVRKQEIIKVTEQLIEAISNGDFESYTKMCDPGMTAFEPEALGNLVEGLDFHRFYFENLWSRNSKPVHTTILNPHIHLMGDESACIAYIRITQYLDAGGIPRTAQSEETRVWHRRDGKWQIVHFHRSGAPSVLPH
UniProt Q13555: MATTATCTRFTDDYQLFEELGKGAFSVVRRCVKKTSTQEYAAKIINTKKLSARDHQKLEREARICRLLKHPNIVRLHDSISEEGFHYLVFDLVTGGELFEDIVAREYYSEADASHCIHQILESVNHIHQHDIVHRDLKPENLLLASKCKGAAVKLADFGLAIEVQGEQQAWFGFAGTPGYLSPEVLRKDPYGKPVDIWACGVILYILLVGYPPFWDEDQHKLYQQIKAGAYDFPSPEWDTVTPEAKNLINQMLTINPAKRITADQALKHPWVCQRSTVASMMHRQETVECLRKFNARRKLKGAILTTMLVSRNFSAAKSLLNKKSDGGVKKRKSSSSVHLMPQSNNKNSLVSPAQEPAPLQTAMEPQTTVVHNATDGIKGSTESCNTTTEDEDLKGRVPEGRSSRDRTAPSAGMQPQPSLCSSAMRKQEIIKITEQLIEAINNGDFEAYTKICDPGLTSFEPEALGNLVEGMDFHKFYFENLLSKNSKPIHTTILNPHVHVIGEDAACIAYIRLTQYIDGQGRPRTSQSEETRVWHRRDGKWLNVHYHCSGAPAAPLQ
UniProt Q15131: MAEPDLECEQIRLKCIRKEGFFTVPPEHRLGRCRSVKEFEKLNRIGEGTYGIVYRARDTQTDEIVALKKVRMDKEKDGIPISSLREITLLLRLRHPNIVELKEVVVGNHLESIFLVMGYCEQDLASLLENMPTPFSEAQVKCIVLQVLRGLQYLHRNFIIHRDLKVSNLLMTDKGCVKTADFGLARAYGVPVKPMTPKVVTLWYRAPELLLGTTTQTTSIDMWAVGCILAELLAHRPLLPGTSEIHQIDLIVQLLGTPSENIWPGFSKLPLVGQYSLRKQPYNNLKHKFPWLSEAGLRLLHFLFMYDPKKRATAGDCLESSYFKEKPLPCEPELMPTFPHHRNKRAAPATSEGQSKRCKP
UniProt Q00526: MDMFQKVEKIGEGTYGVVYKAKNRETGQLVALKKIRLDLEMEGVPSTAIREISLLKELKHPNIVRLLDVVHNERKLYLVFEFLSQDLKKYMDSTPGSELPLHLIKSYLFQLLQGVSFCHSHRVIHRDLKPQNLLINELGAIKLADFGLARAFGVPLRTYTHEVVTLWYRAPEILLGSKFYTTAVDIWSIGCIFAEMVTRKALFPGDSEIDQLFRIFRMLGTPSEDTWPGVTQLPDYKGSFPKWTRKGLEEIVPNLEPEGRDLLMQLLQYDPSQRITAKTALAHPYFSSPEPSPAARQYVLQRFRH
UniProt Q00535, whole entry, looked up: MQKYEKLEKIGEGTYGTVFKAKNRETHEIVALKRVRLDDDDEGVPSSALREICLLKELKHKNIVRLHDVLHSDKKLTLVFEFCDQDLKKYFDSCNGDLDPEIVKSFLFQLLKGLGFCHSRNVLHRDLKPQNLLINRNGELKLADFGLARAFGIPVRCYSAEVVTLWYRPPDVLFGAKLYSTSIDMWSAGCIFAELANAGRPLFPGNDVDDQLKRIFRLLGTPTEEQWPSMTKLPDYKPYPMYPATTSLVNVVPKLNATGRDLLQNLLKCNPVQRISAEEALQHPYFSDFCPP
UniProt Q00534, whole entry: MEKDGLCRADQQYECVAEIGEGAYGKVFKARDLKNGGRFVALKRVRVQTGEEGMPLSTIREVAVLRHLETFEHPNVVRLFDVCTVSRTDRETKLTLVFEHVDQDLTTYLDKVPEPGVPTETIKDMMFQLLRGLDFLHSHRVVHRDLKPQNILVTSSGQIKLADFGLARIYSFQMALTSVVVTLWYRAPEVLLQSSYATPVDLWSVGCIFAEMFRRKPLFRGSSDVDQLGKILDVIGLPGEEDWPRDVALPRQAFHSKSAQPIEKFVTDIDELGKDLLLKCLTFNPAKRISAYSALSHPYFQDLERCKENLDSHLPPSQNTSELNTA
UniProt O96017, whole entry: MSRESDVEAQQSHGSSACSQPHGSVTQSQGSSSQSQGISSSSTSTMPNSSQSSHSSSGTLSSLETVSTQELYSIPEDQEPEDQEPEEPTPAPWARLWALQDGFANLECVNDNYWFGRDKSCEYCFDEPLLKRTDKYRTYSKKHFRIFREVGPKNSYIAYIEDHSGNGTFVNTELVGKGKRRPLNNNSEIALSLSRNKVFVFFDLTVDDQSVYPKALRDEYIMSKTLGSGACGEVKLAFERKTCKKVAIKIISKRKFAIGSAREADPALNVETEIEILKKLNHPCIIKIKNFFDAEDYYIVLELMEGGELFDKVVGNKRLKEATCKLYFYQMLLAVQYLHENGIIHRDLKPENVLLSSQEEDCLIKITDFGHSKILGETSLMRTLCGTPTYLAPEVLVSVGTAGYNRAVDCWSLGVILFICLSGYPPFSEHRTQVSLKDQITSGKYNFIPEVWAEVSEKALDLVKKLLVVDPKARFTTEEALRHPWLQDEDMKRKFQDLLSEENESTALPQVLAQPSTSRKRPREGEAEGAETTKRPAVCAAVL
UniProt P07333, whole entry: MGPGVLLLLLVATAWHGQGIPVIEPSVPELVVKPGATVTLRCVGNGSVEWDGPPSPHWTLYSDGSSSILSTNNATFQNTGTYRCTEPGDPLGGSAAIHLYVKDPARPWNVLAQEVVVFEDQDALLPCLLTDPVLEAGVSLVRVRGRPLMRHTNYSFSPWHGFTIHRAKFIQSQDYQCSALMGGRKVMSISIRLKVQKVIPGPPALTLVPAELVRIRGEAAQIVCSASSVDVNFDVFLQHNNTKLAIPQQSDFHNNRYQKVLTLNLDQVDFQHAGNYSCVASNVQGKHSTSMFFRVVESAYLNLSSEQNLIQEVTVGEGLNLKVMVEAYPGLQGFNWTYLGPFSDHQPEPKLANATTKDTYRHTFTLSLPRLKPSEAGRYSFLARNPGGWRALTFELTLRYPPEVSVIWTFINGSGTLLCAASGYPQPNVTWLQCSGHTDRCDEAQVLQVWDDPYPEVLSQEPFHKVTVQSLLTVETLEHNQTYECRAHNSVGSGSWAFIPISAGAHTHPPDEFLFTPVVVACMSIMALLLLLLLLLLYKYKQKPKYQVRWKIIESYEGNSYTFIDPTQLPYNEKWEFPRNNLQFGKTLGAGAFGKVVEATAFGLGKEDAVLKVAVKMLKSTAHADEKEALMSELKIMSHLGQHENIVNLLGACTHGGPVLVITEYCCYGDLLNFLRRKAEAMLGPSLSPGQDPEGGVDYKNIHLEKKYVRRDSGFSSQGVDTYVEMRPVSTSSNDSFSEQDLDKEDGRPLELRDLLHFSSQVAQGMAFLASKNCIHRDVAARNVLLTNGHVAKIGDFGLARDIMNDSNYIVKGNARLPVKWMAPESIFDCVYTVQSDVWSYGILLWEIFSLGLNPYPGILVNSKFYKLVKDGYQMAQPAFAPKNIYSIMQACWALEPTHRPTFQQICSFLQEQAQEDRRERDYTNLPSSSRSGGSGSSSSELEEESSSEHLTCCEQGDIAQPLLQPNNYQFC
UniProt P41240: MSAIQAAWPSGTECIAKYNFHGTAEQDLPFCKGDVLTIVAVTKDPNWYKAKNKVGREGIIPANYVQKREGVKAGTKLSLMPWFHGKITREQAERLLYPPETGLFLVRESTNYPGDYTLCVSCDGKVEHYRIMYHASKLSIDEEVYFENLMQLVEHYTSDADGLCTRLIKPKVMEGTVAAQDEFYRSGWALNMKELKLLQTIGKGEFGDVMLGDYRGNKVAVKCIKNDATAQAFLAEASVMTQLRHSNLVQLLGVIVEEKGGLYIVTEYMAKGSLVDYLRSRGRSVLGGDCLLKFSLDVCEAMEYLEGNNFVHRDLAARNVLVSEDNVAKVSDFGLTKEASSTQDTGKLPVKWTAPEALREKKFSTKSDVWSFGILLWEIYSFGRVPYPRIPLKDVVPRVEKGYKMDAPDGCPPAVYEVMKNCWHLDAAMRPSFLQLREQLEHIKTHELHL

Columns and labels:
Assay in all cases: number of time points (of 5) at which kinase-Nluc abundance scored as decreased, DMSO-normalised (count); higher = more persistent destabilization
Conditions in all cases: K562; 2-18 h
CAMK2A = CAMK2A (UniProt Q9UQM7)
CAMK2G = CAMK2G (UniProt Q13555)
CDK10 = CDK10 (UniProt Q15131)
CDK2 = CDK2 (UniProt P24941)
CDK3 = CDK3 (UniProt Q00526)
CDK5 = CDK5 (UniProt Q00535)
CDK6 = CDK6 (UniProt Q00534)
CHEK2 = CHEK2 (UniProt O96017)
CSF1R = CSF1R (UniProt P07333)
CSK = CSK (UniProt P41240)

Measured: number of time points

COc1c(C)c(C(=O)c2ccc(N)c(C(=O)O)c2)n2ccccc12 (10 µM)
0: all assays above

CC(C)c1cc(/C=C(\C#N)C(N)=O)cc(C(C)C)c1O (10 µM)
0: all assays above

CSc1ccc(CN2CCCC(Nc3ccc4[nH]ncc4c3)C2)cc1 (stereo not given) [Rho-Kinase-IN-1] (10 µM)
0: all assays above

N=C(N)NC(=N)NCCc1ccccc1 [Phenformin (hydrochloride)] (10 µM)
0: all assays above

CC(C)(O)[C@@H]1CC[C@](C)([C@H]2[C@@H](O)C[C@@]3(C)[C@@H]4C[C@H](O[C@@H]5O[C@H](CO)[C@@H](O)[C@H](O)[C@H]5O)[C@H]5C(C)(C)[C@@H](O[C@@H]6OC[C@@H](O)[C@H](O)[C@H]6O[C@@H]6O[C@H](CO)[C@@H](O)[C@H](O)[C@H]6O)CC[C@@]56C[C@@]46CC[C@]23C)O1 [Astragaloside VI] (10 µM)
0: all assays above

CC(=O)NCCc1c[nH]c2ccc(O)cc12 [N-Acetyl-5-hydroxytryptamine] (10 µM)
0: all assays above

COc1cc(C(=O)N2CCC(N3CCN(C)CC3)CC2)ccc1Nc1ncc2c(n1)N(C)c1ccccc1C(=O)N2C (10 µM)
0: all assays above

CCCCCCCC/C=C\CCCCCCCC(=O)NCC(=O)O [N-Oleoyl glycine] (10 µM)
0: all assays above

COc1cc2ncnc(Nc3ccc(NC(=O)c4ccccc4)cc3)c2cc1OC [Aurora kinase inhibitor-2] (2.5 µM)
0: all assays above

[O-][n+]1cccc(-c2nc3c(Cl)cccc3cc2[C@@H](Nc2ncnc3cccnc23)C(F)(F)F)c1 [Seletalisib] (10 µM)
0: all assays above

CN(C)c1ncnc2nc[nH]c12 [6-(Dimethylamino)purine] (10 µM)
0: all assays above

Cn1cc(-c2cc3c(N4CCN(c5ncc([C@@](C)(N)c6ccc(F)cc6)cn5)CC4)ncnn3c2)cn1 [Avapritinib] (2.5 µM)
0: all assays above

O=C(NOCCO)c1ccc2cncn2c1Nc1ccc(I)cc1F (10 µM)
1: CAMK2G
0: all other assays above

CCc1ccc(C(=O)COc2ccc(CC3SC(=O)NC3=O)cc2)nc1 (stereo not given) (10 µM)
0: all assays above

CC1=C(C(=O)Nc2ccc3[nH]ncc3c2)C(c2ccc(F)cc2)NC(=O)N1 (stereo not given) (10 µM)
2: CDK2
0: all other assays above

CC(C)(C)Cn1c(N)nc2ccc(-c3[nH]c(C(C)(C)C)nc3-c3ccc(F)cc3)nc21 [Ralimetinib dimesylate] (2.5 µM)
0: all assays above

O=C(O)c1cc(O)c2c(c1)[C@@H]([C@H]1c3cc(C(=O)O)cc(O)c3C(=O)c3c(O[C@@H]4O[C@H](CO)[C@@H](O)[C@H](O)[C@H]4O)cccc31)c1cccc(O[C@@H]3O[C@H](CO)[C@@H](O)[C@H](O)[C@H]3O)c1C2=O [Sennoside B] (2.5 µM)
0: all assays above

COc1cc(N2CCC(N3CCN(C)CC3)CC2)ccc1Nc1nc2c(c(Nc3ccccc3S(=O)(=O)NC(C)C)n1)CCN2 [Conteltinib] (10 µM)
0: all assays above

Reprinted at random: two compounds from above.
CCc1ccc(C(=O)COc2ccc(CC3SC(=O)NC3=O)cc2)nc1 (stereo not given) (10 µM)
0: all assays above

O=C(O)c1cc(O)c2c(c1)[C@@H]([C@H]1c3cc(C(=O)O)cc(O)c3C(=O)c3c(O[C@@H]4O[C@H](CO)[C@@H](O)[C@H](O)[C@H]4O)cccc31)c1cccc(O[C@@H]3O[C@H](CO)[C@@H](O)[C@H](O)[C@H]3O)c1C2=O [Sennoside B] (2.5 µM)
0: all assays above

Next part:

CCCNC(=O)c1cn2ncnc(Nc3cc(C(=O)NC4CC4)ccc3C)c2c1C (10 µM)
0: all assays above

CC(C)Oc1ccc(-c2cnc3c(-c4ccnc5ccccc45)cnn3c2)cc1 (10 µM)
0: all assays above

COc1cc(C(C)=O)cc(OC)c1O [Acetosyringone] (10 µM)
0: all assays above

Cn1cc(-c2ccc3nnc(C(F)(F)c4ccc5ncccc5c4)n3n2)cn1 (10 µM)
0: all assays above

O=c1[nH]ccc2cc(OC3CCNCC3)ccc12 (10 µM)
0: all assays above

O=C1NC(=O)C(=Cc2ccc3c(c2)OCO3)S1 (10 µM)
0: all assays above

CCc1cccc(CC)c1NC(=O)c1nn(C)c2c1CCc1cnc(Nc3ccc(C(=O)NC4CCN(C)CC4)cc3OC(F)(F)F)nc1-2 (2 µM)
0: all assays above

CC(C)n1cnc2c(Nc3cccc(Cl)c3)nc(NCCO)nc21 (10 µM)
0: all assays above

CNC(=O)c1cc(Oc2ccc3nc(N[C@@H]4CCCC[C@H]4O)sc3c2)ccn1 (10 µM)
0: all assays above

O=c1ccc2ccc(O)c(O)c2o1 [Daphnetin] (10 µM)
0: all assays above

O=S(=O)(c1cccc2cnccc12)N1CCNCC1 (10 µM)
0: all assays above

COc1nc(-c2ccnc(NC(=O)C3CC3)c2)sc1C(N)=O [GSK-3β inhibitor 2] (10 µM)
0: all assays above

Cc1ccc(-c2nn(C(C)(C)CNC(=O)c3ccncc3)c3ncnc(N)c23)cc1 (2.5 µM)
0: all assays above

CC(C)C[C@H](NC(=O)[C@H](CCCCN)NC(=O)[C@H](CO)NC(=O)[C@@H](N)CC(C)C)C(N)=O [LSKL, Inhibitor of Thrombospondin (TSP-1) (TFA)] (10 µM)
0: all assays above

CCn1nc(C2CCN(C(=O)CCO)CC2)nc1-c1cnc(N)c(-c2nnc(C(C)(C)C)o2)n1 (10 µM)
0: all assays above

CCCC(=O)Nc1nc2c(ncn2[C@@H]2O[C@@H]3COP(=O)(O)O[C@H]3[C@H]2OC(=O)CCC)c(=O)[nH]1 [Dibutyryl-cGMP (sodium)] (10 µM)
0: all assays above

C=CC(=O)Nc1cccc(Oc2nc(Nc3ccc(N4CCN(C)CC4)cc3)nc3ccoc23)c1 [Poseltinib] (10 µM)
0: all assays above
